Article doi:10.1101/2025.09.10.675342
Positions count from the first letter of the chain named. Results are given in words; binding and its absence hold for the method and conditions named. In cells and extracts the contact can be indirect. Some entries that bind do so weakly or less than the wild type. Where a sequence is shown, tags or fusion partners need not be part of it.

Chains of the proteins cited; added tags and fusions are not shown. Residues count along the entry.
UniProt P11835, residues 24-771: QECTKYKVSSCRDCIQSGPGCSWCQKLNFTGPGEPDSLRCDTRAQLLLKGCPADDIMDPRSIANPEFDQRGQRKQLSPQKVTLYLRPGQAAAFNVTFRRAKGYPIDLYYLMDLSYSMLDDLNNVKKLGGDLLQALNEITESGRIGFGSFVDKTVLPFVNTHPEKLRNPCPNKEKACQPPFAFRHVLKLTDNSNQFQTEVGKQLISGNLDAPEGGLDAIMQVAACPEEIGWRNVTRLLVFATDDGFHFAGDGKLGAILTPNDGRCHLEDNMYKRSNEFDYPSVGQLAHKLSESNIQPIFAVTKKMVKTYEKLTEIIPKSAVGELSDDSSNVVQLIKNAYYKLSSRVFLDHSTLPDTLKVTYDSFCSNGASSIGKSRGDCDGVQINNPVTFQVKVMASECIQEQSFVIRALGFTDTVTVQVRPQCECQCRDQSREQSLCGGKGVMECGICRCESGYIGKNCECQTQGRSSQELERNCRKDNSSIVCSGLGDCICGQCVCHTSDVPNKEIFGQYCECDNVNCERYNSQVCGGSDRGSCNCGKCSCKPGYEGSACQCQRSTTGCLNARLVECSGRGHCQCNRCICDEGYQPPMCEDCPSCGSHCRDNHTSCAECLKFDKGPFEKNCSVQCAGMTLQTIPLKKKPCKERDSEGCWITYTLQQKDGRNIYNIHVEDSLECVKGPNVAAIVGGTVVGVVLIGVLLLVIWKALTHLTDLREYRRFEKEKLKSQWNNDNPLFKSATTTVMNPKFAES

Key:
[1] = biological target: T1, CLIP-tagged mouse SIRPα T133I, V143L, Y144L (mouse) (UniProt P97797); experiment: FRET or BRET
T1 sequence (chain, CLIP-Surface 547 on the CLIP tag): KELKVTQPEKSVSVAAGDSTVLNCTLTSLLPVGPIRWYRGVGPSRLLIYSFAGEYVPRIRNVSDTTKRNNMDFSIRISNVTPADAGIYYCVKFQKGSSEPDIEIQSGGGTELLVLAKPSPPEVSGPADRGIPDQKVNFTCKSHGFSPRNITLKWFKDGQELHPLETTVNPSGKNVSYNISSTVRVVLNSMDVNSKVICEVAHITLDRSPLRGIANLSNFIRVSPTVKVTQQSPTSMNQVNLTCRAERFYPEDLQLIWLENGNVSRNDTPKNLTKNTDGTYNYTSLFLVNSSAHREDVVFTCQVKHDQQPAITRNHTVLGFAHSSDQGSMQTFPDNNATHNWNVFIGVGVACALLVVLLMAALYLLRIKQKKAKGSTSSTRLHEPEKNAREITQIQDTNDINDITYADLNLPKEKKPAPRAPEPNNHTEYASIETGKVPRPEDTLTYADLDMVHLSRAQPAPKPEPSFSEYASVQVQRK

[2] = biological target: T2, CLIP-tagged mouse SIRPα T37I, E40V, V43F, S44F, A46G (mouse) (UniProt P97797); experiment: FRET or BRET
T2 sequence (chain, CLIP-Surface 547 on the CLIP tag): T1 sequence (chain, CLIP-Surface 547 on the CLIP tag) with T6I, E9V, V12F, S13F, A15G, I102T, L112V, L113Y

Substance: SNAP-tagged mouse CD18 (acceptor-labeled CD18) (from UniProt P11835 24-771) (receptor)
- binding [1]: binds
- binding [2]: binds
